Publication PMC12060179
These are yes or no findings as the source states them, for the method shown. Some results given as binding are weak or reduced against the parent protein; the word gives no strength.

The chains behind the UniProt entries cited, without tags or fusion partners.
UniProt P41091: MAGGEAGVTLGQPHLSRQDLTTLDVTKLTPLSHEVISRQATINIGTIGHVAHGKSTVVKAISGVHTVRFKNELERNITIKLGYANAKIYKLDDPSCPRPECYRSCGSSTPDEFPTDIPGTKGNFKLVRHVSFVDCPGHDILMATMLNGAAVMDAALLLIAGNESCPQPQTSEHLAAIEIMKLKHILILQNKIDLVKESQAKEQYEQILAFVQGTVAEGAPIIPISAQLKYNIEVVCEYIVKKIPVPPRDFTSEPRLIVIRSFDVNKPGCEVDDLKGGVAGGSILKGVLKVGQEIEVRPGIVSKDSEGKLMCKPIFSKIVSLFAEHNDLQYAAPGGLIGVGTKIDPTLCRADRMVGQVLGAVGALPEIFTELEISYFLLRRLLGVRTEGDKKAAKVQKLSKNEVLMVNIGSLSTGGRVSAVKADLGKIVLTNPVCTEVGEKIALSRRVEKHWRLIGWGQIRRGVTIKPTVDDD
UniProt P06730: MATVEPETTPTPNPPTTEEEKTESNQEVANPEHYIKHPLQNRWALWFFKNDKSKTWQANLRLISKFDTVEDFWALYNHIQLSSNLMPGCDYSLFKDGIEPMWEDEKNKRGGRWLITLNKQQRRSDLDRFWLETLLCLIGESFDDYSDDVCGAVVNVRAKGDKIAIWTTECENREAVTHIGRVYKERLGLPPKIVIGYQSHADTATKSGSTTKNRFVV

Experiments:
[1] = biological target: T1, YTHDF3 (in vitro pull-down) (UniProt Q7Z739); assay: pull-down; in vitro pull-down; bait and conditions not told in what was shown; both purified
T1 sequence: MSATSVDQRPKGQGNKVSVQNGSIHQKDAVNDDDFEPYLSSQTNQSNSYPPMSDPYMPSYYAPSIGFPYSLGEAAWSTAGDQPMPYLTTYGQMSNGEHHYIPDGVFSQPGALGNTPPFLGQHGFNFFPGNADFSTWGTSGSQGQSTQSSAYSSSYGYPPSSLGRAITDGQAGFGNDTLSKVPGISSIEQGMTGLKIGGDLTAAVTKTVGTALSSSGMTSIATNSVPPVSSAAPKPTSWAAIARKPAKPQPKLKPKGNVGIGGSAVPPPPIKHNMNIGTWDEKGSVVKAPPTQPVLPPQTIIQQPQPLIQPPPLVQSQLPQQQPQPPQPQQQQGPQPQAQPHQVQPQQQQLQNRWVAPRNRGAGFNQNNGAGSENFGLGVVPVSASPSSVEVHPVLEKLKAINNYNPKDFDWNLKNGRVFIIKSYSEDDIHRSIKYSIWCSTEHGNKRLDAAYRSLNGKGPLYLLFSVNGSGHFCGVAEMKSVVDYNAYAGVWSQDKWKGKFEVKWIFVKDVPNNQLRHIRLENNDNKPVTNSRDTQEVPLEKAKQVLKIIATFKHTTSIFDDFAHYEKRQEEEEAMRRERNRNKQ

[2] = biological target: T2, YTHDF1 (in vitro pull-down) (human) (UniProt Q9BYJ9); assay: as above
T2 sequence: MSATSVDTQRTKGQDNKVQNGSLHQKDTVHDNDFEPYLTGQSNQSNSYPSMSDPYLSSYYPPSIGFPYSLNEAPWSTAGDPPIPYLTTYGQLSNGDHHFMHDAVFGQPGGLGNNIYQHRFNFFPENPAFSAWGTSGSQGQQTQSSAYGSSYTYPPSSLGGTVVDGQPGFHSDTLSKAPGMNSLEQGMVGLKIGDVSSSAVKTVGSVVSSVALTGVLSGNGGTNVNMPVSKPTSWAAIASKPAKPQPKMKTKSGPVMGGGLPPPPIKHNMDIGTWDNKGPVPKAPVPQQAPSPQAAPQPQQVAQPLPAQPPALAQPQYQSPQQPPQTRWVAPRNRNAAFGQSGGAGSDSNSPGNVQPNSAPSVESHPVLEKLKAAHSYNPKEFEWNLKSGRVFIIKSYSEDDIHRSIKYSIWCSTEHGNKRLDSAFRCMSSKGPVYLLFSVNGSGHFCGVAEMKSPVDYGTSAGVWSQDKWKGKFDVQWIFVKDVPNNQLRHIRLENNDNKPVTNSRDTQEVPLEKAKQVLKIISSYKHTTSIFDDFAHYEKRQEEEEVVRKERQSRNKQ

Row | binding [1] | binding [2] | Substance
1 | binds | binds | EIF2S3 (in vitro pull-down) (from UniProt P41091 1-472)
2 | binds | binds | EIF4E (from UniProt P06730 1-217)
